Test results as given in patent EP0783524B1, “PEPTIDES AND PHARMACEUTICAL COMPOSITIONS COMPRISING THEM” (YEDA RESEARCH AND DEVELOPMENT CO. LTD., priority 1994, dated 2005).
Part of at least one peptide drawing is inferred or uncertain, most often the ends. Ends that are not written are not given here.

What was measured:
[1] = test system: NOD female mice; assay: Vaccination / adoptive transfer protection from spontaneous diabetes, monitored by hyperglycemia; type: in vivo; details: six week old NOD female mice, 100 µg intraperitoneally in PBS; blood glucose exceeding 11.1 mmol/L = hyperglycemia (Figure 7)
[2] = test system: Spleen cells; assay: Spleen cell proliferative response (3H-thymidine, stimulation index) to VDJ peptides as antigens; type: cell-based; details: prediabetic NOD female mice, unvaccinated or vaccinated with C9 or control T cells; synthetic peptide 5 µg/ml (Figure 5, upper panel)

Sequence | inhibition of spontaneous diabetes by active vaccination [1] | T cell proliferative response of spleen cells to the peptide as antigen [2]
ASSLGGNQDTQY [C9 VDJ peptide, ASSLGGNQDTQY (residues 47-58 of SEQ ID NO:1)] | induces resistance to the development of diabetes | T cell proliferative reactivity
ASSLWTNQDTQY [N4 VDJ peptide, ASSLWTNQDTQY (SEQ ID NO:2)] | – | no response
ASSLGGNQD [residues 47-55 of SEQ ID NO:1, A-S-S-L-G-G-N-Q-D] | substantial down-regulation of diabetes | –
